Assay results: PubChem BioAssay AID1508600 (Functional Genomics Laboratory (NCATS/FGL), 2020)
Hit rate of the full screen: of about 53,000 sequences, about 3,700 (7%) were called active.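 How the source made its calls: active means gene knockdowns whose robust z-score for IL-1 alpha signal is at least 2 or at most -2, so actives lie on both sides; inactive means the rest.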 The list shows a part of the results.

Test: Components of the Cytosolic LPS Sensing Pathway: Gene Identification via Genome-wide siRNA Screen;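 further: robust z of the log signal after scaling to non-targeting control siRNA wells of the plate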
Settings: RAW264.7 macrophages, IL-1a HTRF, actives lie on both sides, screened at 100 nM (by protocol), cells primed 5 h with Pam3CSK4 first
In short: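 Cells (RAW264.7, 1×10^4 per well) were transfected with siRNA at 100 nM and cultured 48h at 37 degrees C. Pam3CSK4 was added for 5 hours; LipidA transfection followed for 24 hour. IL-1a was then measured by HTRF.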

z-score, inactive:
GGAACACUUGGGAUCCAGATT against Tmem62 -1.05
AUCCAUUUUGUGCUAGGCATT against Cacfd1 0.473
GGUAGAAUUGUGAUCUCAGTT against Bco2 -0.411
GUGGUGGGAUACACCAACUTT against Gtpbp6 -0.0236
CGUGCUAGUGACCAUUUACTT against Limch1 0.625
GCUCCUCAUUAAGGCUGUCTT against Mybphl -1.41
GGGAGCUCUAAAAAAAGUGTT against Olfr390 1.72
GGGAGAAAAUCCAUUAUAUTT against Hecw1 1.87
GCAAAGGAACGAGUUUGAGTT against Ucma 0.41
GCUGAACAACGAUUGCUCATT against Lypd1 -0.782
GGACGUAAUCAACAUAGCUTT against Zbtb40 -0.545
GGGAAGGUAUAAGACCUUUTT against Olfr509 0.9
GCCUUCUGUUGGUUAAUACTT against Tsc22d3 1.23
GCCUUUAGCUCCAUUCACUTT against Zfyve1 -1.89
GCUACAAUCUUUUAGGUCUTT against Tcta -0.52
GCAACCAUCGUAGCAGAUCTT against Aaas 1.54
GCUGUUUGAAGCUGAUACCTT against Fads3 -0.0526
GAGAAUGCUUCAGUGGUGATT against Pcdha9 0.366
GCAGCGAAGAUUUUAAUUCTT against Rerg 0.968
GGAGACUGGAUUUUUGGUATT against Ccr1l1 0.131
GGCUAUCUACAAAAUGGUGTT against Vsnl1 -1.31
GCCACAAUUUUACUUGGUATT against Ap4s1 0.371
GCACUAGCAGGAUUCAUUGTT against Gabrb2 -1.25
GCUCAACAGCAGUGACGAUTT against Nras -0.701
GGGAUCACAAUGAAGAAAUTT against Chgb -0.46
GCUCCAAUGAGAUCAUUCUTT against Gemin6 0.105
GCUCCAUACUCCGGAUCAGTT against Ftl2-ps -1.57
GGAUAUCCACAGAAAAGGGTT against Chst8 -0.729
GGAAGAACUAGAGUCAUAUTT against Eps8l1 -0.0721
CCAUCUUACAGAUUACCAATT against Slc25a46 -0.576
GGGAAGGGAUCCUAUAUUUTT against Lsm12 0.158
CCUCAAAUCAGCUAACUCATT against Mocs1 -0.366
GCCGUUAUUGCAUUUGGACTT against Tspan2 0.739
GGGUGGCUAUGGACAAAAATT against Arl5c 0.887
GAGCUUCUAAUUCACCCUATT against Abcc6 0.181
GCACUGGUCACUAAUUAUATT against Fabp7 0.163
GGACUGUGAACAACUUUCGTT against Tcim -1.07
GGCCAGCUUACCAUUGAUCTT against Acadvl 1.88
UUGAAAAGUUCGGAACUGATT against Cd300lb -0.308
CGCCUUAUGACAUCCGAUUTT against Dntt 0.997
GCUUGCAUUCAUUUCAUACTT against Ezh2 1.27
CACCAAGGUCUGAGUACCUTT against Gm5622 0.755
CCGACGUAGAGAAAAGGGATT against Chchd1 -1.8
GGCUACAAAUCCAACUAUCTT against Ppp1r32 0.181
GGAGUUUAUGAAUUUGUUCTT against Etfdh -0.0149
GGGCACAACUUCAACAGCUTT against Cmtm8 -1.76
GCAACAUUCGAGCUGGAAATT against Snd1 1.02
GCUCUGUGGCCGAAUUCAUTT against Olfr518 1.04
GGAGUCAAAAAUGCAUUCATT against Dock6 -0.561
GGCUAGCACUGUUUUUACCTT against 1700123O20Rik 0.194
GCUGUUGGUUUCUACUCACTT against Adam21 -0.0536
GCAAAGACCACACCAUACATT against Otol1 0.0397
GAUCCAUUUCACGUUGAUUTT against Gadd45g -0.38
GGGUCAUUAAUGAUGGGCCTT against Pmel 0.254
GGAUGGUAUUCCUAACCAGTT against Cdk20 -0.314
GGACUGAGGAAGAAUUUAATT against Pdia3 -1.2
CGAGAAAAAGACCAUAGUUTT against Btbd10 0.689
GGUCAAGACUGAACUGUGATT against Pcyox1l -0.974
CCCUAACUAAUGAUUCAGATT against Klri1 0.0429
GCUUUUCAGCAUGGAUUUATT against Dennd5a -0.505
GCGGAUUCAGCUGAUGAUGTT against Sash1 -1.32
GGAAAUUGCCAGUAAGGUGTT against Sord 1.44
GGCAUUUUUCUUCUCCAAATT against Clns1a 0.253
GGUUCACUCCUGAUACCACTT against Ddo 1.29
GGGUAUGGGAGGACUUUUGTT against Vmn1r58 -1.27
CCCACUUAUAUAUGUAGUUTT against Wdyhv1 0.282
GCAUGGUAAAAUGCUUAAGTT against Dlst 0.344
GCAAAUAGUAUUCCUUUGGTT against Akap8 0.343
GCAUGACAAGAGCUAGUUUTT against Olfr564 -0.427
GGAGGAAGUUGAAAAUGAATT against Myom2 0.157
GUCAGAGAAGCAUCCAGGATT against Pisd-ps1 -1.86
GCAAAUCUACCUCUUCGGGTT against Cdsn 0.289
GGAAACGGCAUAGUGCUAUTT against Mrgprb4 1.88
GCCUCAAAUGCAUACAUACTT against Nr2e1 -0.676
CGGACUCGAAAGAAGGAAUTT against Srfbp1 -0.841
GGAAGAAAAGCAGGAAGCUTT against Hmgn3 -0.806
GCCCGACAUCAUGAUUGUUTT against Gne 0.246
GGCACAGUUCCUCAGUAUGTT against Hspbap1 1.76
CCAUUCUGAAAGUUUCAUCTT against Olfr350 -0.303
CCUAGUUAGAGUAAUUAGGTT against Mras -0.0693
GGCGAAAACGGUAAAGCCUTT against H1f4 0.448
GGAAUAGUCAACUUGGUAUTT against Ndc80 0.153
GGACCUCUGUUUCCAGGAGTT against G6pc3 0.54
GCAGACAAUAUCUCUGAAUTT against Olfr459 -0.942
CGAUUCCCUGGUUAUGACUTT against Rpl5 -0.669
GGGAUUUUACUCAGGAUUATT against Sycp2 0.781
GGAUCUGAUAAACUCAUUCTT against Lad1 -1.22
GGCAUAGCUCAGUGAUAGCTT against Tmem19 0.117
GGAUGUUGUAGAUGCUUUGTT against Acot1 0.682
CGAAUAAACUUGAUUUGCCTT against Ier3 0.238
GGAACGAGUUUUGAAAAAATT against Creb3l3 0.073
GGGAAAUUUCUCACUCUCUTT against Olfr1362 -0.224
UACUACAACCGCACAGUGATT against Tmc6 0.522
GGAAUCCAUGUUAGUAGCCTT against Lrsam1 0.312
GGUGGUCUACAUAGCUUGUTT against Kdelr1 1
GGGCUUCUGUGCAUUGCAUTT against Asb3 -0.0101
GCGAUAUAAUAUGGAAAGATT against Plcg2 1.07
GCAAGUGAAGAAACAGCACTT against Stx1b -0.581
CGUAGCAAUCUUGGUUGCUTT against Hoxa3 -1.86

Fetched one by one from the entries so far:
z-score, inactive:
GGCAUAGCUCAGUGAUAGCTT against Tmem19 0.117
GGGUAUGGGAGGACUUUUGTT against Vmn1r58 -1.27
GGCUAGCACUGUUUUUACCTT against 1700123O20Rik 0.194
GCUCCAAUGAGAUCAUUCUTT against Gemin6 0.105
GGGAAGGUAUAAGACCUUUTT against Olfr509 0.9

2 consecutive records from above, for reference:
z-score, inactive:
GGCUAUCUACAAAAUGGUGTT against Vsnl1 -1.31
GCCACAAUUUUACUUGGUATT against Ap4s1 0.371

Next part:

z-score, active:
CAAACUGGGUCCCAAUGAATT against Ndufa4 2.7
GGACUUUGUGAAGGACUCUTT against Gatd1 -2.56
GGAAUCAAAGGUCAAGCCATT against Rnf181 2.17
GGACAAUGUGGACUUUGAUTT against Edem2 -2.33
GGAUGAUGAAUUCACACACTT against Calr 3.18
GCUUGCACUGGACUCAACUTT against Pax4 -2.76
CCAUUUUUACCUACAUCCATT against Olfr452 2.43
GCGGGUGAAAUACACCAAGTT against Trim28 -2.2
GGUGGAUUUUAAGUUUCCUTT against Aurkc 3.43
